Publication PMC11267527

By UniProt entry, the sequences of proteins in these tests, tags left out.
UniProt Q9UJ55: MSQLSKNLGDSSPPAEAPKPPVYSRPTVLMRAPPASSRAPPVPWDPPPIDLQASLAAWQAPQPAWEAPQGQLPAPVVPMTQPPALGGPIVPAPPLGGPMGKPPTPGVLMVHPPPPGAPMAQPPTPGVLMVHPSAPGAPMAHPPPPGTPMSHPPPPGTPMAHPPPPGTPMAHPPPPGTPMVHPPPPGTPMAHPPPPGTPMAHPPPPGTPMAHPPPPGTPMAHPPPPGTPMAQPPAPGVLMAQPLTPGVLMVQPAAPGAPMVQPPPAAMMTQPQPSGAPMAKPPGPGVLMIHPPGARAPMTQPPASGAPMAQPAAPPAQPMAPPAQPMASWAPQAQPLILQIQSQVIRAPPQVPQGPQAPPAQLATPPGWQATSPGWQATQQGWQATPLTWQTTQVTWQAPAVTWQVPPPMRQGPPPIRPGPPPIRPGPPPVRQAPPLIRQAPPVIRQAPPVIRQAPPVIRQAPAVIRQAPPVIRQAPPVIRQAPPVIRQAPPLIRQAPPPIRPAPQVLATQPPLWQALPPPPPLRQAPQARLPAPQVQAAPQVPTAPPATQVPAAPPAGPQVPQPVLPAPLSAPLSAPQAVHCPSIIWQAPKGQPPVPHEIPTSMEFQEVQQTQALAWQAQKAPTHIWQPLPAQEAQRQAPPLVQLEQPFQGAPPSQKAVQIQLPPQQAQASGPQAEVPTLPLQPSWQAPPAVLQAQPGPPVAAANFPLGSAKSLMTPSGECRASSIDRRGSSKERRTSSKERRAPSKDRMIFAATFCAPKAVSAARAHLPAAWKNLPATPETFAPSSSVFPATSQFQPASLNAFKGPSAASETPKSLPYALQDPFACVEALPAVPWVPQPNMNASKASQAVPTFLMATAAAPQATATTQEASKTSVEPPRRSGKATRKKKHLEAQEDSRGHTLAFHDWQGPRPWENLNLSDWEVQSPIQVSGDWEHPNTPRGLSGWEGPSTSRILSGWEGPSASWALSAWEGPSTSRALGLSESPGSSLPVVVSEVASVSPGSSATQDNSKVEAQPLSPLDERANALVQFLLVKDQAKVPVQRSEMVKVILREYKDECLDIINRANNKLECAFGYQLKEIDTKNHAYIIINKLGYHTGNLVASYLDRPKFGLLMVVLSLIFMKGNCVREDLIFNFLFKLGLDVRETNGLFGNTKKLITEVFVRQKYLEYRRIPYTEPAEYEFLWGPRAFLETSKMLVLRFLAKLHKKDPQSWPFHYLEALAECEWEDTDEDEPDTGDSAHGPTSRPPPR
UniProt Q15717: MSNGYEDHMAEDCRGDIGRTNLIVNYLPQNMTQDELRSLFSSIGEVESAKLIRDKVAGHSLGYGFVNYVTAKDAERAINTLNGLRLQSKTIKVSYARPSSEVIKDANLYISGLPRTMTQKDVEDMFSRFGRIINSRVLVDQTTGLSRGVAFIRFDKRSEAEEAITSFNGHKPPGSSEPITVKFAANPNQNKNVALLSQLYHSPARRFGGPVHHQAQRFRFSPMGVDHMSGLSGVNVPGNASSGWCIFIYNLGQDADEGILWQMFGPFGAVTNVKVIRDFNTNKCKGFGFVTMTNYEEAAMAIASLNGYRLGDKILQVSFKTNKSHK
UniProt P35637: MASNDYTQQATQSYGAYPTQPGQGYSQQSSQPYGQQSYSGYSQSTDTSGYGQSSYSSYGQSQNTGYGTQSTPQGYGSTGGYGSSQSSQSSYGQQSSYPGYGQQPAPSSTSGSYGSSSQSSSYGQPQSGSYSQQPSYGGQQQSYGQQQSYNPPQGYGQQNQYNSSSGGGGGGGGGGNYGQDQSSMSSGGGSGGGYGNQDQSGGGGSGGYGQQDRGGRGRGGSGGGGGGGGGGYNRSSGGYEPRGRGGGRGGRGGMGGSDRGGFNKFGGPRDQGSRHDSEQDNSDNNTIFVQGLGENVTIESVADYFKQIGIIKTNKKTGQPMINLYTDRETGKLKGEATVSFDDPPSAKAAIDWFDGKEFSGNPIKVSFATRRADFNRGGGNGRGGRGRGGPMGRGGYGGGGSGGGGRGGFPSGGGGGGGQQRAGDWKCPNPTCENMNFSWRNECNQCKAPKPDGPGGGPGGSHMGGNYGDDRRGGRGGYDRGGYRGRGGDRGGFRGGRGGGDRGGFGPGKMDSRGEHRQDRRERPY
UniProt P17096: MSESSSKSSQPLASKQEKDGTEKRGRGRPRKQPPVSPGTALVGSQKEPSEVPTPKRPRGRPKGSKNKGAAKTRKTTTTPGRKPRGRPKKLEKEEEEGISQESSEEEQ
UniProt P11940: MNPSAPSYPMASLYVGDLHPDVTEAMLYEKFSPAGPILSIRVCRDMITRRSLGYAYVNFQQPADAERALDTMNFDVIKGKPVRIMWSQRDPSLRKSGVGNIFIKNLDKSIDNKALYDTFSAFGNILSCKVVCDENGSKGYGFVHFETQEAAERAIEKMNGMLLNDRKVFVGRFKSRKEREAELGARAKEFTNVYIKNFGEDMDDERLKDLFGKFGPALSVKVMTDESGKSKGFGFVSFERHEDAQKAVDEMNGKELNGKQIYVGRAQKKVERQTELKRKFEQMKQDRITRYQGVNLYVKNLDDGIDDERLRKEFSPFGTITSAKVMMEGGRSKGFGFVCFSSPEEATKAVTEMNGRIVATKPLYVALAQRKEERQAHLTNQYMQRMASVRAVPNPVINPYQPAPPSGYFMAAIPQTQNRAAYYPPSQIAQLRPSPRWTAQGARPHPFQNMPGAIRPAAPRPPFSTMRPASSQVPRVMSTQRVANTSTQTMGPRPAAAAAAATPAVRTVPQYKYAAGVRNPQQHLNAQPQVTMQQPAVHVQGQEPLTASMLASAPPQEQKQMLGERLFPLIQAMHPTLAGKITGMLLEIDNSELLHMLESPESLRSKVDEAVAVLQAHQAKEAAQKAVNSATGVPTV
UniProt P67809: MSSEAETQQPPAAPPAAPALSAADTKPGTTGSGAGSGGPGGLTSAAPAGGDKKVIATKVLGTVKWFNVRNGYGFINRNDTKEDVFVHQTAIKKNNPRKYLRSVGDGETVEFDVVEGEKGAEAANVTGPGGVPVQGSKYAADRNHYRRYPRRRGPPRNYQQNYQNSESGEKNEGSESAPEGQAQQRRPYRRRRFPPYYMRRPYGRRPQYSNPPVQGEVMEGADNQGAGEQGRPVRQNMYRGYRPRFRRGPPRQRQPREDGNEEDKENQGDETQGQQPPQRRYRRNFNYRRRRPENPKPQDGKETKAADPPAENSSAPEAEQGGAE
UniProt P07305: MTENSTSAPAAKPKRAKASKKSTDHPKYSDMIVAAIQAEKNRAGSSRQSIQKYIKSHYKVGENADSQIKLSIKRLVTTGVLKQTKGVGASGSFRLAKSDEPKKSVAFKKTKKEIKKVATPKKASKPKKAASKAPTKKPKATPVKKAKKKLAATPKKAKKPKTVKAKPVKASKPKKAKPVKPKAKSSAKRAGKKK
UniProt P16403: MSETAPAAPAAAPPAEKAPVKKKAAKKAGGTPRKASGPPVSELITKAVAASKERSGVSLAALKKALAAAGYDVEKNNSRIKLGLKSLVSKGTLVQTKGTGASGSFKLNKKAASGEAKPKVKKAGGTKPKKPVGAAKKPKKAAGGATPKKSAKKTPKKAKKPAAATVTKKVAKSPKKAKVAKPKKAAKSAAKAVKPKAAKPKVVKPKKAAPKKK
UniProt P16402: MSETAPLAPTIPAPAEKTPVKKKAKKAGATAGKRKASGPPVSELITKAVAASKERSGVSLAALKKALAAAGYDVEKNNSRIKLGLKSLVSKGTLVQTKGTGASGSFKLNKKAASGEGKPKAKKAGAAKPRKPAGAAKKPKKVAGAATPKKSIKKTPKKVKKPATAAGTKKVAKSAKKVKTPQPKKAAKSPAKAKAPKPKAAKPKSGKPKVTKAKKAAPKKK
UniProt Q92522: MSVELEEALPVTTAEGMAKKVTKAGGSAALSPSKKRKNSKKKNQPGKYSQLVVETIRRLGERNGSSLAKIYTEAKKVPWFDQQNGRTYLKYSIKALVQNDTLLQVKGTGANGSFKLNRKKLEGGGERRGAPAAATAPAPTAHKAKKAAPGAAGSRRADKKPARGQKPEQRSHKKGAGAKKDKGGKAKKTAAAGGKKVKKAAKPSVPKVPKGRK

B1: HNRNPA0 (protein, UniProt Q13151 1-305)
chain: MENSQLCKLFIGGLNVQTSESGLRGHFEAFGTLTDCVVVVNPQTKRSRCFGFVTYSNVEEADAAMAASPHAVDGNTVELKRAVSREDSARPGAHAKVKKLFVGGLKGDVAEGDLIEHFSQFGTVEKAEIIADKQSGKKRGFGFVYFQNHDAADKAAVVKFHPIQGHRVEVKKAVPKEDIYSGGGGGGSRSSRGGRGGRGRGGGRDQNGLSKGGGGGYNSYGGYGGGGGGGYNAYGGGGGGSSYGGSDYGNGFGGFGSYSQHQSSYGPMKSGGGGGGGGSSWGGRSNSGPYRGGYGGGGGYGGSSF
B2: ILF3 (protein, UniProt Q12906 1-894)
chain: MRPMRIFVNDDRHVMAKHSSVYPTQEELEAVQNMVSHTERALKAVSDWIDEQEKGSSEQAESDNMDVPPEDDSKEGAGEQKTEHMTRTLRGVMRVGLVAKGLLLKGDLDLELVLLCKEKPTTALLDKVADNLAIQLAAVTEDKYEILQSVDDAAIVIKNTKEPPLSLTIHLTSPVVREEMEKVLAGETLSVNDPPDVLDRQKCLAALASLRHAKWFQARANGLKSCVIVIRVLRDLCTRVPTWGPLRGWPLELLCEKSIGTANRPMGAGEALRRVLECLASGIVMPDGSGIYDPCEKEATDAIGHLDRQQREDITQSAQHALRLAAFGQLHKVLGMDPLPSKMPKKPKNENPVDYTVQIPPSTTYAITPMKRPMEEDGEEKSPSKKKKKIQKKEEKAEPPQAMNALMRLNQLKPGLQYKLVSQTGPVHAPIFTMSVEVDGNSFEASGPSKKTAKLHVAVKVLQDMGLPTGAEGRDSSKGEDSAEETEAKPAVVAPAPVVEAVSTPSAAFPSDATAEQGPILTKHGKNPVMELNEKRRGLKYELISETGGSHDKRFVMEVEVDGQKFQGAGSNKKVAKAYAALAALEKLFPDTPLALDANKKKRAPVPVRGGPKFAAKPHNPGFGMGGPMHNEVPPPPNLRGRGRGGSIRGRGRGRGFGGANHGGYMNAGAGYGSYGYGGNSATAGYSQFYSNGGHSGNASGGGGGGGGGSSGYGSYYQGDNYNSPVPPKHAGKKQPHGGQQKPSYGSGYQSHQGQQQSYNQSPYSNYGPPQGKQKGYNHGQGSYSYSNSYNSPGGGGGSDYNYESKFNYSGSGGRSGGNSYGSGGASYNPGSHGGYGGGSGGGSSYQGKQGGYSQSNYNSPGSGQNYSGPPSSYQSSQGGYGRNADHSMNYQYR
B3: HMGN1 (protein, UniProt P05114 1-100)
chain: MPKRKVSSAEGAAKEEPKRRSARLSAKPPAKVEAKPKKAAAKDKSSDKKVQTKGKRGAKGKQAEVANQETKEDLPAENGETKTEESPASDEAGEKEAKSD

Key:
[1] = molecular target: HA-miniTurbo-MAGEL2 WT (biotin ligase fusion for BioID) (human) (UniProt Q9UJ55); assay: proximity labelling; BioID: HA-miniTurbo-MAGEL2 fusions transiently expressed in HEK293T; 200 uM biotin for 4 h in starvation medium; RIPA lysis; biotinylated proteins captured on streptavidin magnetic beads overnight at 4 C; LC-MS/MS; proteins in at least two of three replicates
[2] = molecular target: WT GFP-MAGEL2 (GFPspark fused N-terminally to full-length wild-type human MAGEL2) (human) (UniProt Q9UJ55); assay: affinity purification with mass spectrometry; GFP-CoIP: GFPspark-MAGEL2 fusions transiently expressed in HEK293T; IP lysis buffer (25 mM Tris-HCl pH 7.4, 150 mM NaCl, 1 mM EDTA, 1% Igepal CA-630, 5% glycerol); anti-GFP covalently coupled to Protein A beads, overnight at 4 C; elution with 2% formic acid; LC-MS/MS; proteins in at least two of three replicates

| Molecule | binding [1] | binding [2] |
| --- | --- | --- |
| ELAVL1 (from UniProt Q15717 1-326) | binds | binds |
| FUS (from UniProt P35637 1-526) | binds | binds |
| HMGA1 (from UniProt P17096 1-107) | binds | binds |
| PABPC1 (from UniProt P11940 1-636) | binds | binds |
| YBX1 (from UniProt P67809 1-324) | binds | binds |
| histone H1.0 (from UniProt P07305 1-194) | binds | binds |
| histone H1.2 (from UniProt P16403 1-213) | binds | binds |
| histone H1.3 (from UniProt P16402 1-221) | binds | binds |
| histone H1.10 (from UniProt Q92522 1-213) | binds | binds |
| B1 | binds | binds |
| B2 | binds | binds |
| B3 | binds | binds |

These are yes or no findings as the source states them, for the method shown. Binding seen in cells or lysates may run through a third protein. Here binding means that the protein was enriched with, or labelled near, the bait; the list need not be complete.
